Measurements taken from paper PMC9904227.
No constants are given. Whether binding was seen depends on the method and setting. Binding seen in cells or lysates may run through a third protein. Some entries that bind do so weakly or less than the wild type. For some of these results: Sequences can lack the tags named with a protein.

Amino acid sequences for entries named in this document (tags omitted).
UniProt Q96P20: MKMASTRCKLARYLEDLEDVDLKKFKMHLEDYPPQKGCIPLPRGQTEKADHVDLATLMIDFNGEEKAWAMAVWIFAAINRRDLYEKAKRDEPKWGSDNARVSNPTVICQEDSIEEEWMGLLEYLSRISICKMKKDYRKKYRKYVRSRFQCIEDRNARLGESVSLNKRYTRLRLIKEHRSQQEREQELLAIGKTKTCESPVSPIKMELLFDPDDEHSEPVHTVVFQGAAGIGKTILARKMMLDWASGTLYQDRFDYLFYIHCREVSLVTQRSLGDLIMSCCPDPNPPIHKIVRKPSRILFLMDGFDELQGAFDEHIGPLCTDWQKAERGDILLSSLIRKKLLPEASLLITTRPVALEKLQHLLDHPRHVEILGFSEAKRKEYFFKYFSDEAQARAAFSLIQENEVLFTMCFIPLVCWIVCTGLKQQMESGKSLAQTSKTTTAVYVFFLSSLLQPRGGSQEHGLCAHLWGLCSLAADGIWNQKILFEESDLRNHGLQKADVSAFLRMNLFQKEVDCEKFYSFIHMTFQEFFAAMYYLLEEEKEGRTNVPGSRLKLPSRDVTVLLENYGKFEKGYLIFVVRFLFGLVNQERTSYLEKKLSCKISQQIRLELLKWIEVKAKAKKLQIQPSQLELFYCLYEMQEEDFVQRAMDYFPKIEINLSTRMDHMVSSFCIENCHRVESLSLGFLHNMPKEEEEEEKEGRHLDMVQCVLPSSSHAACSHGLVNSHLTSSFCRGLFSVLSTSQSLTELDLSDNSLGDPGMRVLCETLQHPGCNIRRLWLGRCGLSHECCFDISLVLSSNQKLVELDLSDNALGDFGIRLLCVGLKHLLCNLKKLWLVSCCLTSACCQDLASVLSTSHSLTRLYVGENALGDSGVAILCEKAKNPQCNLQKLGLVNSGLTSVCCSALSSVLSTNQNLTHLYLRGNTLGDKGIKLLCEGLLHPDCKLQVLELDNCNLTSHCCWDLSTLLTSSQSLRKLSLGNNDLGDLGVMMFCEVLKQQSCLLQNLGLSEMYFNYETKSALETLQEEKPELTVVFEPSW
UniProt P55060: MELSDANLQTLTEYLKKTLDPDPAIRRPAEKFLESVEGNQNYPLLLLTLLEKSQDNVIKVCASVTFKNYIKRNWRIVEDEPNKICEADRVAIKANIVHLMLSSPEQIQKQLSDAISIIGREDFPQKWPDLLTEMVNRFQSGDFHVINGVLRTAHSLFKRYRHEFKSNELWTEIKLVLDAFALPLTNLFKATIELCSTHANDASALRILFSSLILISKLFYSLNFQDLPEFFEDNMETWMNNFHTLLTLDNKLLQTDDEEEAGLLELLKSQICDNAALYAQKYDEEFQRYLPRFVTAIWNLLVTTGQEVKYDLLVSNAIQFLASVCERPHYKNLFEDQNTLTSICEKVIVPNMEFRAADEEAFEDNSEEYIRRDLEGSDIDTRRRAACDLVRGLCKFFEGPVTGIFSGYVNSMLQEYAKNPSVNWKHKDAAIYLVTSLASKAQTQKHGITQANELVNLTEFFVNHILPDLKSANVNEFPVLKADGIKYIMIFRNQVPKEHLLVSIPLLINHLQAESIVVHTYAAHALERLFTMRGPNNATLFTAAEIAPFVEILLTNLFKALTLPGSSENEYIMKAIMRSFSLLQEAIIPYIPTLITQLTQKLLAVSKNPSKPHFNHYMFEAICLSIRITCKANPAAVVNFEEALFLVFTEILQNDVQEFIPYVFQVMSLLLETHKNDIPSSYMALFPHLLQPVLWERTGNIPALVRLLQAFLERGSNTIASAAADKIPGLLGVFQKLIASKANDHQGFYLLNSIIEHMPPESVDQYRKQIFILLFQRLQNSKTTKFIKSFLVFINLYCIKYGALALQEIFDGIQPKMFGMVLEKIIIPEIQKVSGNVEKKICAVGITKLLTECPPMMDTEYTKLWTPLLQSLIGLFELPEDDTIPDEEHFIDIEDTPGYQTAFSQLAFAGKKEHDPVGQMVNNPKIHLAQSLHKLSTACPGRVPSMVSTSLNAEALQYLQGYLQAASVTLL

T1: HA-ATM kinase domain (aa 2566-3057) (UniProt Q13315)
T1 sequence: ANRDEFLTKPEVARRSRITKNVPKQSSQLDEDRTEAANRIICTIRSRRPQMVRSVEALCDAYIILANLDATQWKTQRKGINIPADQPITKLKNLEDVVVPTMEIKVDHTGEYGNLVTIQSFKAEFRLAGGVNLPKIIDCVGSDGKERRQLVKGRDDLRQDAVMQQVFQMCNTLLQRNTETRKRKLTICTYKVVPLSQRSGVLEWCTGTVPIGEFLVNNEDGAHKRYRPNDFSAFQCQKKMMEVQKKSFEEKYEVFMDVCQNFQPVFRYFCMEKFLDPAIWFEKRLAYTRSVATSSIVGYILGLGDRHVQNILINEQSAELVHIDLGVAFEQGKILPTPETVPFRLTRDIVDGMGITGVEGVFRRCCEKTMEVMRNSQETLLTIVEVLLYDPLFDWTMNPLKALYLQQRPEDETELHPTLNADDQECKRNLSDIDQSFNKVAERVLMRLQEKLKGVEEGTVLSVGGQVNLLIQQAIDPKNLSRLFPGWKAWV


How the values were obtained:
[1] = molecular target: T1, HA-ATM kinase domain (aa 2566-3057); assay: co-IP; HeLa cells transfected with FLAG-NLRP3 and HA-ATM kinase domain; same lysis buffer; IP with anti-HA-agarose beads overnight at 4 °C; immunoblot
FLAG-ATM = FLAG-ATM (UniProt Q13315); assay: co-IP; HeLa cells transfected; lysis in Tris-HCl 100 mM pH 8.0, 10 mM MgCl2, 90 mM NaCl, 0.1% Triton X-100; IP with anti-FLAG M2-agarose beads overnight at 4 °C; immunoblot
FLAG-NLRP3 (human) = FLAG-NLRP3 (human) (UniProt Q96P20); assay: as above

binding (FLAG-NLRP3 (human)) | Molecule | further results
 | FLAG-NLRP3 (from UniProt Q96P20 1-1036) | binding [1]: binds
 | mCherry-NLRP3 (from UniProt Q96P20 1-1036) | binding (FLAG-ATM): binds
binds | XPO2 (from UniProt P55060 1-971) | 
binds | IPO5 (protein, UniProt O00410 1-1097) MAAAAAEQQQFYLLLGNLLSPDNVVRKQAEETYENIPGQSKITFLLQAIRNTTAAEEARQMAAVLLRRLLSSAFDEVYPALPSDVQTAIKSELLMIIQMETQSSMRKKVCDIAAELARNLIDEDGNNQWPEGLKFLFDSVSSQNVGLREAALHIFWNFPGIFGNQQQHYLDVIKRMLVQCMQDQEHPSIRTLSARATAAFILANEHNVALFKHFADLLPGFLQAVNDSCYQNDDSVLKSLVEIADTVPKYLRPHLEATLQLSLKLCGDTSLNNMQRQLALEVIVTLSETAAAMLRKHTNIVAQTIPQMLAMMVDLEEDEDWANADELEDDDFDSNAVAGESALDRMACGLGGKLVLPMIKEHIMQMLQNPDWKYRHAGLMALSAIGEGCHQQMEGILNEIVNFVLLFLQDPHPRVRYAACNAVGQMATDFAPGFQKKFHEKVIAALLQTMEDQGNQRVQAHAAAALINFTEDCPKSLLIPYLDNLVKHLHSIMVLKLQELIQKGTKLVLEQVVTSIASVADTAEEKFVPYYDLFMPSLKHIVENAVQKELRLLRGKTIECISLIGLAVGKEKFMQDASDVMQLLLKTQTDFNDMEDDDPQISYMISAWARMCKILGKEFQQYLPVVMGPLMKTASIKPEVALLDTQDMENMSDDDGWEFVNLGDQQSFGIKTAGLEEKSTACQMLVCYAKELKEGFVEYTEQVVKLMVPLLKFYFHDGVRVAAAESMPLLLECARVRGPEYLTQMWHFMCDALIKAIGTEPDSDVLSEIMHSFAKCIEVMGDGCLNNEHFEELGGILKAKLEEHFKNQELRQVKRQDEDYDEQVEESLQDEDDNDVYILTKVSDILHSIFSSYKEKVLPWFEQLLPLIVNLICPHRPWPDRQWGLCIFDDVIEHCSPASFKYAEYFLRPMLQYVCDNSPEVRQAAAYGLGVMAQYGGDNYRPFCTEALPLLVRVIQSADSKTKENVNATENCISAVGKIMKFKPDCVNVEEVLPHWLSWLPLHEDKEEAVQTFNYLCDLIESNHPIVLGPNNTNLPKIFSIIAEGEMHEAIKHEDPCAKRLANVVRQVQTSGGLWTECIAQLSPEQQAAIQELLNSA | 
